# Reference: PubChem BioAssay AID1487 (National Center for Advancing Translational Sciences (NCATS), 2009)
# The other results are listed elsewhere or left out. These are further read-outs of the screen, such as a control signal, another cell line or another target. No call is given for them. The list favours compounds with an active or inconclusive main result. The note in brackets gives the kind of curve behind each potency; many fits are weak.
# Experiment: qHTS Assay for Modulators of Lamin A Splicing
# Conditions: HeLa LMNA splicing GFP/RFP minigene ratio, 48 h
# Procedure, shortened: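 Read-out is the ratio of GFP to DsRed2 object intensity, acquired by 488 nm laser-scanning cytometry on HeLa lamin A-EGFP minigene reporter cells. Compound incubation 48 hrs at 37 °C in Opti-MEM with 2% FBS; DMSO 0.5% final.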
# [1] = measured here: RFP viability control channel
# [2] = measured here: GFP splicing reporter channel
Compound,AC50 [1],AC50 [2]
COc1ccc(NC(=O)Cn2nnc(-c3ccccc3NC(=O)c3ccco3)n2)cc1,"4.47 µM [rising, single point]",
Cc1c(/C=N/NC(=O)c2cccnc2)c2ccccc2n1Cc1ccccc1,,"0.00316 µM [rising, full curve, poor fit]"
CCOc1ccc(C(=O)Nc2cccc(SC)c2)cc1,"10 µM [rising, partial curve]","6.31 µM [rising, partial curve, poor fit]"
COc1ccc(NC(=O)C2CCCN(S(=O)(=O)c3cccc4cccnc34)C2)cc1OC (stereo not given),"3.98 µM [rising, partial curve]",
Cc1cccc(OCc2nc(-c3ccccn3)n[nH]2)c1,"15.8 µM [rising, partial curve]","11.2 µM [rising, partial curve]"
Fc1ccc(Cn2cccc2C2=NC(c3ccccc3)CO2)cc1 (stereo not given),"1.41 µM [rising, partial curve]","2.51 µM [rising, partial curve, poor fit]"
O=C(NN1C(=O)/C(=C/c2cccnc2)SC1=S)C(c1ccccc1)c1ccccc1,"35.5 µM [falling, single point]","12.6 µM [falling, single point]"
O=C(CN1CCOCC1)Nc1cccc(C(=O)Nc2cccc(C(F)(F)F)c2)c1,"22.4 µM [rising, partial curve, poor fit]",
Cc1cccc(OCc2nnc(SCC(=O)N(C(C)C)C(C)C)n2Cc2ccco2)c1C,"8.91 µM [rising, partial curve]","2.51 µM [rising, full curve, poor fit]"
Oc1c(C(c2ccc(Cl)cc2Cl)N2CCN(c3ccccc3)CC2)sc2nc(-c3ccco3)nn12 (stereo not given),"11.2 µM [falling, partial curve]","14.1 µM [falling, partial curve]"
CCCCC(CC)CNC(=O)Cn1c(=O)[nH]c2ccsc2c1=O (stereo not given),,"1.41 µM [rising, full curve, poor fit]"
CCN(CC)CCNC(=O)c1c(C)n(-c2ccccc2)c2cc(Br)c(OC)cc12,"12.6 µM [falling, single point]","0.1 µM [falling, partial curve]"
CCN1C(C(=O)c2ccccc2)=C(Nc2ccccc2C)c2ccccc2S1(=O)=O,"14.1 µM [rising, partial curve]","11.2 µM [rising, partial curve]"
CCn1c(CSc2ncccn2)nnc1SCC(=O)N1CCc2ccccc21,,"0.282 µM [rising, single point]"
Cc1nc2ccc(NS(=O)(=O)c3ccc4c(c3)OCCO4)cc2s1,"0.708 µM [rising, full curve]",
O=c1[nH]c(-c2ccccn2)nc2ccccc12,"35.5 µM [rising, single point]",
Cc1onc(-c2ccccc2Cl)c1C(=O)Oc1cccc2cccnc12,"35.5 µM [falling, single point]","3.16 µM [falling, partial curve]"
COc1ccc(Oc2c(-c3ccc(O)cc3O)n[nH]c2C)cc1,"12.6 µM [rising, partial curve]","12.6 µM [rising, single point]"

# Fetched one by one from the list above (2):
Compound,AC50 [1],AC50 [2]
Cc1c(/C=N/NC(=O)c2cccnc2)c2ccccc2n1Cc1ccccc1,,"0.00316 µM [rising, full curve, poor fit]"
CCOc1ccc(C(=O)Nc2cccc(SC)c2)cc1,"10 µM [rising, partial curve]","6.31 µM [rising, partial curve, poor fit]"

# Next structures.

Compound,AC50 [1],AC50 [2]
CC(=O)c1cn(CC(=O)Nc2ccc(C)cc2C)c2ccccc12,"3.16 µM [rising, full curve]",
Cc1ccc(S(=O)(=O)Nc2nc3ccccc3nc2NCc2ccco2)cc1C,"5.62 µM [rising, full curve]","2.82 µM [rising, full curve]"
CN(c1ccc(C(=O)NCc2cccnc2)cc1)S(C)(=O)=O,"0.316 µM [falling, full curve, poor fit]",
COc1ccc(CNC(=O)c2cnc3sc(N4CCCCCC4)nn3c2=O)cc1,"0.0112 µM [falling, full curve, poor fit]",
CC(=O)OCC(=O)c1c[nH]c2ccccc12,"22.4 µM [falling, partial curve, poor fit]",
O=C(Oc1cccc(C(=S)N2CCOCC2)c1)c1cc([N+](=O)[O-])cc([N+](=O)[O-])c1,,"11.2 µM [falling, single point]"
Cc1ccc(N/N=C(\Cc2nc3ccccc3[nH]2)c2ccccc2)cc1,"5.62 µM [rising, single point]",
O=C(Nc1ccc(F)cc1)c1ccc(-n2cncn2)c([N+](=O)[O-])c1,,"17.8 µM [rising, single point]"
COc1ccc(C)cc1NC(=O)CN1CCN(C/C=C/c2ccccc2)CC1,"35.5 µM [rising, single point]",
CCOC(=O)c1nnn(-c2nonc2-n2cccc2)c1CCl,"5.62 µM [rising, single point]","3.98 µM [rising, single point]"
COc1ccc(NC(=O)NN2CCOCC2)cc1OC,,"39.8 µM [falling, partial curve, poor fit]"
O=C(Nc1c(S(=O)(=O)c2ccc(Cl)cc2)csc1Br)c1ccccc1Cl,"22.4 µM [falling, single point]",
O=S(=O)(Nc1cccc(C(F)(F)F)c1)c1ccc(-c2cnc(C3CC3)o2)cc1,"1.26 µM [rising, partial curve]","12.6 µM [falling, partial curve, poor fit]"
Cc1ccc(C)c2[nH]c(=O)c(CCNC(=O)c3ccco3)cc12,"0.141 µM [rising, full curve]","0.447 µM [rising, partial curve]"
CCc1nnc(NC(=O)CSc2nnc(CNc3ccc(OC)cc3)n2C)s1,"0.141 µM [rising, full curve, poor fit]","22.4 µM [rising, single point]"
CCN(CC)c1ccc(NC(=O)c2ccccc2)cc1S(=O)(=O)Nc1ccccc1OC,"7.94 µM [rising, partial curve, poor fit]",
O=C(NNC(=S)NC(=O)c1ccccc1[N+](=O)[O-])c1ccccc1Cl,"31.6 µM [rising, single point]",
